In publication PMC10321654:
No constants are given. Whether binding was seen depends on the method and setting. In cells and extracts the contact can be indirect. Some binding calls cover weakened binding; strength is not graded here.

Protein sequences, listed by entry. Tags and fused reporters are not part of them.
UniProt P97371: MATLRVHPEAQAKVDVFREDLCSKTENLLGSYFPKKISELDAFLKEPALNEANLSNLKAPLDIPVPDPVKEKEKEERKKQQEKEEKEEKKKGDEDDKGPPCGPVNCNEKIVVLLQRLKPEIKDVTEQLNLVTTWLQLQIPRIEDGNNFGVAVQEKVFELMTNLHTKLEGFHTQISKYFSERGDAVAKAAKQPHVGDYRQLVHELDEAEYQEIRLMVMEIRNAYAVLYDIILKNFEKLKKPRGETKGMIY

What was measured:
GFP-PA28α = GFP-PA28α (UniProt P97371); assay: co-IP
[1] = target: 3xFLAG-LegC4 (L. pneumophila) (UniProt Q5ZU55); assay: co-IP
GST-PA28α = GST-PA28α (UniProt P97371); assay: pull-down; only the target purified

Substance: 3xFLAG-LegC4 (from UniProt Q5ZU55 1-760)
- binding (GFP-PA28α): binds

Substance: PA28α-Myc (from UniProt P97371 1-249)
- binding [1]: binds

Substance: [change]-LegC4 (from UniProt Q5ZU55 1-760)
- binding (GST-PA28α): binds
